Where a name gives a salt, the structure may show the parent alone. Some of the results follow. Most values come without repeats; read them as rough.
Test system: Trypanosoma brucei brucei bloodstream form L262P (kDNA-independent)
Assay: viability Z-score (nuclei count per well, median-polish normalised, relative to plate distribution); higher = more viable parasites (negative = growth inhibition)
Conditions: 4 days; compound concentration: 10 µM (some Prestwick/PKE rows may be 1 µM / not distinguished)

| Structure (SMILES) | viability Z-score |
| --- | --- |
| O=[S](=O)(C=1/C=C(/[Br])C=C2CCN(C=12)C(=O)C3([H])CC3)N4CCN(CC4)C5=CC=CC=C5 | -4.95 |
| CCC(=O)c1cc(Cl)ccc1NC(=O)c1ccccc1Br | -2.67 |
| O=C(C[C@@]([H])(N/C2=C/C=1C=CC=CC=1C=C2)C3=CC=NC=C3)C4=C/C=C(/[Br])C=C4 | -2.8 |
| N=C1C(=C([S][C@@]1(C(=O)OCC)C(=C)O)N/C2=C/C=CC=C2)[P](=O)(OCC)OCC | -7.2 |
| CN(C)NC(=O)C[C@H](C(=O)O)n1ccnc1 | -4.17 |
| O=C(N(CC=1C=CC=CC=1)CC)C2=CC=C(C=C2)C(=O)N(C/C3=C/C=CC=C3)CC | -5.68 |
| CC[C@@H]1C(=O)C[C@@H](c2ccc([N+](=O)[O-])cc2)N[C@H]1c1ccc([N+](=O)[O-])cc1 | -4.96 |
| O=C(Nc1ccc(S(=O)(=O)N2CCCCC2)cc1)c1cccc(Cl)c1 | -3.28 |
| O=C(N1CC[C@](C)([H])CC1)C23C[C@@]4(C)C[C@@](C)(C2)CC([H])(C3)C4 | -5.2 |
| O=C(N[C@@](C)([H])C1=CC=CC=C1)[C@@]2([H])CCC2 | -5.89 |
| CN(C)C(=O)C(CCN1CCC(O)(c2ccc(Cl)cc2)CC1)(c1ccccc1)c1ccccc1 [Loperamide hydrochloride] | -3.06 |
| OC(c1cc(C(F)(F)F)nc2c(C(F)(F)F)cccc12)C1CCCCN1 (stereo not drawn) [Mefloquine hydrochloride] | -4.5 |
| O=C(C=1C=CC=CC=1[S]/C2=C/C(OC)=CC=C2)N3CCN(CC3)C=4C=C(C=CC=4)C([F])([F])[F] | -4.72 |

Quoted from the results shown for reference:

| Structure (SMILES) | viability Z-score |
| --- | --- |
| CN(C)C(=O)C(CCN1CCC(O)(c2ccc(Cl)cc2)CC1)(c1ccccc1)c1ccccc1 [Loperamide hydrochloride] | -3.06 |
| OC(c1cc(C(F)(F)F)nc2c(C(F)(F)F)cccc12)C1CCCCN1 (stereo not drawn) [Mefloquine hydrochloride] | -4.5 |
| O=C(C=1C=CC=CC=1[S]/C2=C/C(OC)=CC=C2)N3CCN(CC3)C=4C=C(C=CC=4)C([F])([F])[F] | -4.72 |

— the supplement of paper PMC8846439
